Assay results: the supplement of paper PMC6411743
± gives the standard deviation of the averaged measurements. This is a selection; strong and weak results do not stand in their true shares. Small differences around the control level are noise.

Amino acid sequences for entries named in this document (tags omitted). A change or cut given only in a name is not applied to a line headed by its entry.
UniProt Q6NUK4: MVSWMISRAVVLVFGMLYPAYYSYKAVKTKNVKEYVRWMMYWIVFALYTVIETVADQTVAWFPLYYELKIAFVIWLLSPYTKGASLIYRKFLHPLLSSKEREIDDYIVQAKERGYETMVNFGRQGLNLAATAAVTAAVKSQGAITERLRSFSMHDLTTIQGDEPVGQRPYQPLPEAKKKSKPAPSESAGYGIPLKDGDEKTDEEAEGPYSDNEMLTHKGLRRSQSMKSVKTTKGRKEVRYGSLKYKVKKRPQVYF
UniProt Q4V328: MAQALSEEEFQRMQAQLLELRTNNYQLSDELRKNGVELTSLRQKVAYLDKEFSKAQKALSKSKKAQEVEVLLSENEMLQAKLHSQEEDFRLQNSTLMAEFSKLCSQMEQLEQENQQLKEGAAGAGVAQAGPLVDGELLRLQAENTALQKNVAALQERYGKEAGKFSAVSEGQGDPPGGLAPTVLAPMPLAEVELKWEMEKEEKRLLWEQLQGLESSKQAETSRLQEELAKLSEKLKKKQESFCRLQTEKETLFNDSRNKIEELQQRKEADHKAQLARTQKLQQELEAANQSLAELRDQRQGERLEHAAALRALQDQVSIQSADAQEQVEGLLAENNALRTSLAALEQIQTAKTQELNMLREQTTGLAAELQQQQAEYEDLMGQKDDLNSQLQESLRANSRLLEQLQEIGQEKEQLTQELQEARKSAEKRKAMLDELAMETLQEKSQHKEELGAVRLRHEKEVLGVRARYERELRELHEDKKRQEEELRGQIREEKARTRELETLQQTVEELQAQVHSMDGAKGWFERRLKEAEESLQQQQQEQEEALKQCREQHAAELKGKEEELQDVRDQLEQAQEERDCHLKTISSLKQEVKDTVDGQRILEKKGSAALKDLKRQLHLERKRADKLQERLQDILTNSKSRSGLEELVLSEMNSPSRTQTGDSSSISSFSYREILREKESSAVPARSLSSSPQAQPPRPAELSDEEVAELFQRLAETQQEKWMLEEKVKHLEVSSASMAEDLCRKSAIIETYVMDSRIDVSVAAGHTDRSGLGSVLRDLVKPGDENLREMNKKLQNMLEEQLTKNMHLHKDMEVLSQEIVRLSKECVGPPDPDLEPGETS
UniProt Q5VW36: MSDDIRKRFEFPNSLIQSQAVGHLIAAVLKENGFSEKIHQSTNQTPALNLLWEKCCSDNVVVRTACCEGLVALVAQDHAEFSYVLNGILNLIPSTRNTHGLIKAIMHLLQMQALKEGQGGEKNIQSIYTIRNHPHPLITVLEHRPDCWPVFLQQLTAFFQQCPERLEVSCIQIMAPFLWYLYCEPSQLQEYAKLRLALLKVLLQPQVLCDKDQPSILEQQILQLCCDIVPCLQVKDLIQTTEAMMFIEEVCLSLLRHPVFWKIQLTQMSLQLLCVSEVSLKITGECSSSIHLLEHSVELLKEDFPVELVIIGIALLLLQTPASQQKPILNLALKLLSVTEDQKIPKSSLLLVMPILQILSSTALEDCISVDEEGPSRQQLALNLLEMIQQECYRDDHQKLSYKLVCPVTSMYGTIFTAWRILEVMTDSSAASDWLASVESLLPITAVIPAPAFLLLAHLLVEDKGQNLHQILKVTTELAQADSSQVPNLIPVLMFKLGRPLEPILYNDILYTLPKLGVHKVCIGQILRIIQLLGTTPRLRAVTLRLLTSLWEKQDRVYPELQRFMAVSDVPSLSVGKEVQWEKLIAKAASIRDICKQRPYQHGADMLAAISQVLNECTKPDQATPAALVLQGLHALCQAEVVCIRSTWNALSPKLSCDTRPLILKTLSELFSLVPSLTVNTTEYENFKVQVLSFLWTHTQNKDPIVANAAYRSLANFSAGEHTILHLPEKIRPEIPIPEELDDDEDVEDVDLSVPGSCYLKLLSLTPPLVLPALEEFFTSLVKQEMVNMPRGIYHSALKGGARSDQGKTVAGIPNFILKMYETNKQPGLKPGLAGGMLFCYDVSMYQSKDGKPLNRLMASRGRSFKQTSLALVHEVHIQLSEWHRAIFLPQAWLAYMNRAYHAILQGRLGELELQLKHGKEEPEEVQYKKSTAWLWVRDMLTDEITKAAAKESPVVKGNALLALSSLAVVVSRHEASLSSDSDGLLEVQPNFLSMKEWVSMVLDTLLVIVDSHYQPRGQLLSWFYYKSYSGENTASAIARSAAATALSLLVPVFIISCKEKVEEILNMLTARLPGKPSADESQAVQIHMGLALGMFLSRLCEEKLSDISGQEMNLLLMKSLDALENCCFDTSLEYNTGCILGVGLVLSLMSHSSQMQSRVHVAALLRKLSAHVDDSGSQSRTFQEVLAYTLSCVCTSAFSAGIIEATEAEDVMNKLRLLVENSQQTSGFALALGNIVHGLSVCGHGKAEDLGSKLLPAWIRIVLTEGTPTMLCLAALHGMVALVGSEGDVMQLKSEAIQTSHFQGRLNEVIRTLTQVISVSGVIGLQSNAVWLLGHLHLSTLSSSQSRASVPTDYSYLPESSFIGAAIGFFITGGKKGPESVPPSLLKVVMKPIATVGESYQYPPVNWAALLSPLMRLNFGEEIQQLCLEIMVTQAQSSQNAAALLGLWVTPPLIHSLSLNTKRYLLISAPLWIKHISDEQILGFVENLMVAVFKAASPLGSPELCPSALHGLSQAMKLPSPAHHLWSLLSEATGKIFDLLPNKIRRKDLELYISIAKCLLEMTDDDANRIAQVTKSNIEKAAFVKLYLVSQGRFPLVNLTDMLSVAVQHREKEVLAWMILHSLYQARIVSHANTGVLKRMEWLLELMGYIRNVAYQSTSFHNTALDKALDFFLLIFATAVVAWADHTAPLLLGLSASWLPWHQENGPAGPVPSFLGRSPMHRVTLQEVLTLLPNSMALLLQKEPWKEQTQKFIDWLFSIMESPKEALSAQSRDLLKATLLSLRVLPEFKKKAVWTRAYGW
UniProt Q641Q2, whole entry: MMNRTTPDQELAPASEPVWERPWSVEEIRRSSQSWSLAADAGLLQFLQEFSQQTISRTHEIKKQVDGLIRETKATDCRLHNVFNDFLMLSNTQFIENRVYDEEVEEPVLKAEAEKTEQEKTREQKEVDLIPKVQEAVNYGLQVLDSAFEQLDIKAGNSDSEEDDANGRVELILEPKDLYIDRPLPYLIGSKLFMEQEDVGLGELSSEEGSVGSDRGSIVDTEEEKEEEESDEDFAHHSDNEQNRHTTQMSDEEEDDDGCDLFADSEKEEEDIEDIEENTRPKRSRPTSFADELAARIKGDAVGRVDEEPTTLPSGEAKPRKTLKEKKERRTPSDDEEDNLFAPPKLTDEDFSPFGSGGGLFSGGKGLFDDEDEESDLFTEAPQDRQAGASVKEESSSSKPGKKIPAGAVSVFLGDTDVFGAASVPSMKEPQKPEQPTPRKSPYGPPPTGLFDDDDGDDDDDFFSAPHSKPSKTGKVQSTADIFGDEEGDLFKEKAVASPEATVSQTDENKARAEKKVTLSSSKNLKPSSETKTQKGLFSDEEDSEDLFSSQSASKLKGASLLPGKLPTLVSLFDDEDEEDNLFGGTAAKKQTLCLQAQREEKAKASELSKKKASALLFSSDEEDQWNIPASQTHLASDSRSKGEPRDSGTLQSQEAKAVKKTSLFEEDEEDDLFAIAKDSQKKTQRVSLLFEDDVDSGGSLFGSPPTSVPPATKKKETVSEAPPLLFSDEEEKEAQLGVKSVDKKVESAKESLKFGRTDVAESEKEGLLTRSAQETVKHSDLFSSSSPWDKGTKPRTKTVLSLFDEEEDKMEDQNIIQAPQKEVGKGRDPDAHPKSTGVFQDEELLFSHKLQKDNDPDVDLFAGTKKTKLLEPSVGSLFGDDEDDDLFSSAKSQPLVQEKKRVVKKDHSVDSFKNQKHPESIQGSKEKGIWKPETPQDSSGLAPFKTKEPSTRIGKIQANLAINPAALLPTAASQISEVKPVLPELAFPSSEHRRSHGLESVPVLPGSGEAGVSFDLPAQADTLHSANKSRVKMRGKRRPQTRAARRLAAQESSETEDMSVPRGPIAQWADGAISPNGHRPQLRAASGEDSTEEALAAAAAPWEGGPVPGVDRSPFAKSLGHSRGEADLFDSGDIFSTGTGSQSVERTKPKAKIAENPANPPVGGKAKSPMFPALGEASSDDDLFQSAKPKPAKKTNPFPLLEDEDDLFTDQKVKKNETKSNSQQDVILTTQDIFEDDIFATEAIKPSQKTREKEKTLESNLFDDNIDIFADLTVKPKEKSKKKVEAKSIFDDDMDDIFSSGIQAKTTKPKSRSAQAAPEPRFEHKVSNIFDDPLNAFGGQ
UniProt Q5VWZ2: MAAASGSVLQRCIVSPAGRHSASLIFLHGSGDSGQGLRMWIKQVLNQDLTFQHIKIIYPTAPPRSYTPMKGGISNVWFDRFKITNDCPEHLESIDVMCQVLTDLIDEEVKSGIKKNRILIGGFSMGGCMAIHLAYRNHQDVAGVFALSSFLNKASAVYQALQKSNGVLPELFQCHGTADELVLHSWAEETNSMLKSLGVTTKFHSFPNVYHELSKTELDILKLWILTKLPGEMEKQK
UniProt Q6I9Y2: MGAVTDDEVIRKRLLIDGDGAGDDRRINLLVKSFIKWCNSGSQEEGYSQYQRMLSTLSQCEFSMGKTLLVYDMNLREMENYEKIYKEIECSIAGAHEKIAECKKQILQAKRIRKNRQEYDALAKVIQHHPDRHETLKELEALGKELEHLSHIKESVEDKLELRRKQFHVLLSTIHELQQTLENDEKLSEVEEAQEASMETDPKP
UniProt Q5JPF3: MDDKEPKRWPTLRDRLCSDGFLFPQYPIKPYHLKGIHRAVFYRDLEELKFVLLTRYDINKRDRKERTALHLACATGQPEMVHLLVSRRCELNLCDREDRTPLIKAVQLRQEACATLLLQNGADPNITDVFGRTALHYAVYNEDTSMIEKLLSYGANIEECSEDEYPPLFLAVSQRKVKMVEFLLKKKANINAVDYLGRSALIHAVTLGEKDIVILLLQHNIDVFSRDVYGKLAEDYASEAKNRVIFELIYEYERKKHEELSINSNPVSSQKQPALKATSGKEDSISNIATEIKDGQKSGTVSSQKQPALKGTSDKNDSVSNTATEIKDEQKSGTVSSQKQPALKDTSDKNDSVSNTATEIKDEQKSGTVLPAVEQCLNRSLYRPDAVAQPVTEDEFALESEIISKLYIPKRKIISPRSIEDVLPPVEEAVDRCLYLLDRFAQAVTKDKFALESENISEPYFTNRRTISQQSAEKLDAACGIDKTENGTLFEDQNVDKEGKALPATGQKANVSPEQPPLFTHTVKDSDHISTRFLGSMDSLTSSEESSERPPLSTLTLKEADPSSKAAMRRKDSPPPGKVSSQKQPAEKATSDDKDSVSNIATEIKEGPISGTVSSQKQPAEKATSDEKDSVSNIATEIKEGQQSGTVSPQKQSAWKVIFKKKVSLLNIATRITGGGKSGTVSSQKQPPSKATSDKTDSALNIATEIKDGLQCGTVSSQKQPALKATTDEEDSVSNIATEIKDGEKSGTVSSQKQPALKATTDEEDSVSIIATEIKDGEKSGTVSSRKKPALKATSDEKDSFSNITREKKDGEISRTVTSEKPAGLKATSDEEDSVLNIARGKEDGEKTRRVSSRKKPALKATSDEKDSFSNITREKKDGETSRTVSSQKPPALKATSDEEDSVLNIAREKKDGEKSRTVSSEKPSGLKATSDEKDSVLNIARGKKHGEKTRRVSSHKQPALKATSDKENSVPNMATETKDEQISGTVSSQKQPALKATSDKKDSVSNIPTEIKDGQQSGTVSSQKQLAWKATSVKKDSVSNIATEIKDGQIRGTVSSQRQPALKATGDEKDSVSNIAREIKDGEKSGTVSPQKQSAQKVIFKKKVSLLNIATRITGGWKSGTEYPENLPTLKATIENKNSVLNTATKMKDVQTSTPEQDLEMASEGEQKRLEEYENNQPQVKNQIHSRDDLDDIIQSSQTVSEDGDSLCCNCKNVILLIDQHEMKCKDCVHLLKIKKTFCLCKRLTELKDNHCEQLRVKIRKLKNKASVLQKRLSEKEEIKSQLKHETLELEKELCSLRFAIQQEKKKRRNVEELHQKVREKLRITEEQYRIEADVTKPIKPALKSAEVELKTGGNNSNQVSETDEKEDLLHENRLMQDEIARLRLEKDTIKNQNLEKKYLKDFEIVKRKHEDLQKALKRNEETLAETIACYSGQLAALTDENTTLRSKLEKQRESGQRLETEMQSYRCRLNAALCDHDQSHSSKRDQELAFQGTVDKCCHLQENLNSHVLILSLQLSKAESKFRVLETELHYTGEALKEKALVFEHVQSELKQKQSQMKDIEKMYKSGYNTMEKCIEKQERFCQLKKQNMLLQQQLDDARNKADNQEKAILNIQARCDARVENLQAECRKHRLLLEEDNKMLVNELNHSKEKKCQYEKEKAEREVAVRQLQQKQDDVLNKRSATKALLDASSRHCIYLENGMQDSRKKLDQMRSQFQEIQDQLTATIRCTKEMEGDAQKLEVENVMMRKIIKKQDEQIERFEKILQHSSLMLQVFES

Compound: Nc1ncnc2c1ncn2[C@@H]1O[C@H](COP(=O)(O)OP(=O)(O)OP(=O)(O)O)[C@@H](O)[C@H]1O [adenosine triphosphate]
Assay: NP40-soluble protein abundance relative to vehicle (solubility fold change) (ratio); higher = more soluble protein in presence of ATP
Outline: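 Jurkat crude lysate (Dounce-homogenised) was treated with eight concentrations from 0.1 to 10 mM for 10 min at room temperature, then 3 min at 37 °C. It was solubilised with 0.8% NP40 and benzonase (60 min, 4 °C) and ultracentrifuged, and the supernatant was TMT-labelled for LC-MS/MS. Intensities were vsn-normalised, and the value is the fold change against the NP40-processed vehicle per replicate, from three independent experiments.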

Target	NP40-soluble protein abundance (concentration: 0.1mM)	NP40-soluble protein abundance (concentration: 0.5mM)	NP40-soluble protein abundance (concentration: 1mM)	NP40-soluble protein abundance (concentration: 2mM)	NP40-soluble protein abundance (concentration: 4mM)	NP40-soluble protein abundance (concentration: 6mM)	NP40-soluble protein abundance (concentration: 8mM)	NP40-soluble protein abundance (concentration: 10mM)
MRPL2 (UniProt Q5T653)	1.04 ± 0.14	0.973 ± 0.11	–	–	–	–	–	–
GRAMD4 (UniProt Q6IC98)	1.04 ± 0.037	1.02 ± 0.056	1.01 ± 0.02	0.998 ± 0.02	0.994 ± 0.035	1.02 ± 0.031	1.02 ± 0.025	1.01 ± 0.02
REEP3 (UniProt Q6NUK4)	1.09 ± 0.052	1.22 ± 0.16	–	–	–	–	–	–
UniProt Q684P5-2|Q684P5-3|Q684P5	0.988 ± 0.027	0.998 ± 0.036	–	–	–	–	–	–
UniProt Q4V328 and related entries	0.995 ± 0.017	0.982 ± 0.036	–	–	–	–	–	–
UniProt Q5JUR7	1.06 ± 0.11	1.03 ± 0.072	1 ± 0.077	1.07 ± 0.12	1.04 ± 0.029	1.02 ± 0.13	1.05 ± 0.087	1.06 ± 0.062
UniProt Q5VW36 and related entries	0.944 ± 0.068	0.9 ± 0.079	–	–	–	–	–	–
C6ORF134 (UniProt Q5SQI0)	0.9649 ± 0.0057	0.921 ± 0.022	0.975 ± 0.073	0.98 ± 0.089	0.981 ± 0.064	0.999 ± 0.09	0.983 ± 0.029	0.998 ± 0.04
RNF20 (UniProt Q5VTR2)	0.994 ± 0.015	1 ± 0.054	0.962 ± 0.05	0.961 ± 0.02	0.935 ± 0.024	0.997 ± 0.041	0.935 ± 0.019	0.933 ± 0.017
HS1BP3 (UniProt Q53T59)	1.08 ± 0.022	1.03 ± 0.037	–	–	–	–	–	–
Q5T3Q7 and related entries (UniProt Q9H583)	1.07 ± 0.12	1.1 ± 0.073	–	–	–	–	–	–
UniProt Q641Q2 and related entries	1.02 ± 0.032	0.983 ± 0.044	0.968 ± 0.057	0.9815 ± 0.0096	0.938 ± 0.033	0.94 ± 0.094	0.895 ± 0.05	0.896 ± 0.047
UniProt Q6KCM7-2|Q6KCM7-3|Q6KCM7 and related entries	1.054 ± 0.0011	1.02 ± 0.018	0.871 ± 0.048	0.884 ± 0.061	0.831 ± 0.012	0.758 ± 0.085	0.868 ± 0.039	0.894 ± 0.026
LYPLAL1 (UniProt Q5VWZ2)	0.97 ± 0.057	0.985 ± 0.018	0.942 ± 0.077	0.936 ± 0.066	0.892 ± 0.048	0.879 ± 0.12	0.883 ± 0.03	0.904 ± 0.057
THOC7 (UniProt Q6I9Y2)	1.01 ± 0.091	1.22 ± 0.1	1.4 ± 0.11	1.5 ± 0.15	1.73 ± 0.19	1.95 ± 0.38	2.12 ± 0.2	2.03 ± 0.26
ZC3H12A (UniProt Q5D1E8)	1.08 ± 0.12	1.01 ± 0.038	0.982 ± 0.088	1.05 ± 0.089	0.988 ± 0.11	1.02 ± 0.085	1.02 ± 0.084	0.943 ± 0.11
UniProt Q66K14 and related entries	1.03 ± 0.045	1.02 ± 0.029	–	–	–	–	–	–
UniProt Q6P1J9	1.01 ± 0.047	1.01 ± 0.043	–	–	–	–	–	–
UniProt Q5JPF3	1.01 ± 0.028	0.958 ± 0.097	–	–	–	–	–	–
UniProt Q5T280	0.958 ± 0.062	1.06 ± 0.035	1.03 ± 0.085	1.08 ± 0.077	1.23 ± 0.12	1.47 ± 0.17	1.52 ± 0.21	1.83 ± 0.22
UniProt Q6NXE6 and related entries	0.98 ± 0.018	0.947 ± 0.033	–	–	–	–	–	–
FAM117B (UniProt Q6P1L5)	0.982 ± 0.057	0.976 ± 0.049	0.945 ± 0.048	0.984 ± 0.061	0.97 ± 0.039	0.978 ± 0.042	0.952 ± 0.069	0.946 ± 0.032
UniProt Q6NW34 and related entries	0.881 ± 0.13	0.831 ± 0.1	0.863 ± 0.078	0.831 ± 0.11	0.792 ± 0.15	0.892 ± 0.11	0.84 ± 0.14	0.785 ± 0.21

Single entries from the results shown:
NP40-soluble protein abundance (concentration: 0.5mM) with GRAMD4 (UniProt Q6IC98) is entered as 1.02 ± 0.056
NP40-soluble protein abundance (concentration: 0.5mM) with UniProt Q5JUR7 is entered as 1.03 ± 0.072
